Experimental data from PubChem BioAssay AID1347423 (Functional Genomics Laboratory (NCATS/FGL), 2020).
Among all 52,000 sequences or so, about 210 (0.4%) were called active.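 The calls were made as follows: active = gene whose silencing raises cell survival under the drug, median off-target-corrected z-score across its silencing RNAs 2 or more; inactive = the rest.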 The list shows a part of the results.

Test: Resistance to Poly (ADP-Ribose) Polymerase inhibitor: Gene Identification via Genome-wide siRNA Screen
Details: mouse BRCA2 R2336H ES cells, olaparib, CellTiter-Glo viability; active compounds read high
In short: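 Genome-wide siRNA screen (3 siRNAs/gene, 20 nM) in mouse ES cells carrying hypomorphic BRCA2 R2336H; olaparib 500 nM added 48 h post-transfection, CellTiter-Glo viability 72 h later. Normalized to plate-median negative control; MAD z-scores, gene median, seed-adjusted.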

Sequence | z-score
GGUGGAUUGACUAUGGCAATT against 4932416A15 | inactive: -1.09
GGCCUGUGGAAGAAAUACGTT against Pdhb | inactive: 0.133
GGAGCAUUUCCUCACAACATT against Idh3g | inactive: -0.296
GGCAGCAGAGAACAAGAAATT against 1200009K13Rik | inactive: -1.8
CCAAGAUUGACAUCAUCCGTT against Pkn1 | inactive: 0.344
GCACUUCAGUUUACAAAACTT against D130064H19Rik | inactive: 0.0937
GUUCUGAGAAGAAACCCAUTT against V1rh9 | inactive: 0.811
GCAUGUAGAUACGUGGGUATT against Usp38 | inactive: -2.27
GGAGAUCCUUAAGCUGUUGTT against 2700083B06Rik | inactive: 1.75
GCCAGGCAAAUUACAUCGCTT against 1300007L22Rik | inactive: 0.693
GGGACAGAUCUGAACCUUUTT against Dtr | inactive: 0.311
GCUUUACGAUACUCCAUAUTT against Shd | inactive: -0.181
GCUGGUGUCAUUAGACAGUTT against Npc1l1 | inactive: -0.302
GGCCCUGUUAGUGCUAUACTT against Amh | inactive: -1.25
GGUACAAAUGAAGCUUUGATT against C230095G01Rik | inactive: -0.539
GCCUUAGGACGAGAGAAUATT against 4921530L21Rik | inactive: -0.0354
CCUAAGUACUGUAAGAAUATT against Nmyc1 | inactive: -0.0472
GGAUUCACACAAUGGCAAGTT against Rpl39 | inactive: -1.88
GGGAUGUGUCUAAUGACUCTT against A830058L05 | inactive: -1.02
GGACGUGACCAUGAUGUCUTT against 5330437I02Rik | inactive: -1.31
GUGGCAGCUGACAUGAAUGTT against Plac8 | inactive: -0.198
GGUCAAUUCAAGAUUGAUUTT against 2900006F19Rik | inactive: -0.106
GGCUGAAAUCUCAAUGGCUTT against BC037594 | inactive: 1.46
UUGACAGCUGGUAGACACUTT against 2210021J22Rik | inactive: -0.867
GGCCGGAUUGUCUAUAUUUTT against Per1 | inactive: -1.24
GGCACUCAGGAAAAAAAAGTT against Clstn3 | inactive: -0.0339

Sequence | z-score
CGGAGCUAAUAUUUUAUGCTT against Mospd1 | inactive: -0.812
GCCUUGAGUGCAUUAAUUUTT against Ube2r2 | inactive: -0.418
GGAAGAGAAAGUAAAGAAGTT against Hcph | inactive: 1.13
GGAAUACUCUUAAAUGACUTT against Zfp455 | inactive: -0.918
GCCUGUACUUUCGACUUCUTT against Fpr1 | inactive: -1.02
GGAGAGCUGUUUGACUACATT against Melk | inactive: -0.685
CCUUUUCAUAUGGUACUCCTT against Ranbp6 | inactive: 0.286
CGGACCUAUGCAAGAAGAUTT against 2310020A21Rik | inactive: -2.11
GGACAAGUUUACAAUGCAATT against 4930465K10Rik | inactive: 0.562
CCGGAUGUGCCUUGUCUACTT against 4930432B04Rik | inactive: -2.68
GGAAAUUAUCUGCUUCUCATT against Dqx1 | inactive: -1.05
GGUUGUGAAACAGCAAUUCTT against Ptx3 | inactive: -0.099
GCAUCAAUUCCCAAACCUUTT against LOC280621 | inactive: 1.12
CGAGGUCUAUAACAUGACCTT against Smox | inactive: 1.66
CCGGGAAGUGGAUAAUUUUTT against Olfr1368 | inactive: 0.0282
GGAACAUUUCACCUUUUAGTT against 1110002B05Rik | inactive: 1.79
GGUGUAGAGAUUCACAGGUTT against Foxd1 | inactive: 0.985
GGAGUUUGUCUUCUCUUUCTT against Foxf1a | inactive: -0.805
CCGACGUGCAUGGAGAAAATT against 1700030J22Rik | inactive: -1.71
GGAUCAAAAAAAAACUGGATT against Tera | inactive: -2.07
GGAAUUCAGUUUUACCUGUTT against Slc6a13 | inactive: 0.422
CCGGUCCUCUCAGAAAUUATT against Asz1 | inactive: 1.05
CGCAUCGACAGCUAUGUCATT against Rhbdf1 | inactive: 1.64
GGAUCUACUACCUGUCUUUTT against Pygm | inactive: -0.175
GCUUCUACCAAUGUUUAUCTT against Slc5a3 | inactive: 0.61
CCAUAGUUUUGGUUACCAATT against E330037G11Rik | inactive: 0.795

Quoted from the listing.
z-score, CGGACCUAUGCAAGAAGAUTT against 2310020A21Rik reads inactive: -2.11
z-score, GGUUGUGAAACAGCAAUUCTT against Ptx3 reads inactive: -0.099
z-score, CCGACGUGCAUGGAGAAAATT against 1700030J22Rik reads inactive: -1.71
z-score, GCCUGUACUUUCGACUUCUTT against Fpr1 reads inactive: -1.02
z-score, GGAGUUUGUCUUCUCUUUCTT against Foxf1a reads inactive: -0.805
z-score, GGAAUACUCUUAAAUGACUTT against Zfp455 reads inactive: -0.918
z-score, GGAACAUUUCACCUUUUAGTT against 1110002B05Rik reads inactive: 1.79

(further entries)

Sequence | z-score
GGCAGAGAAUCAGCUCCUUTT against Il16 | inactive: -2.31
GGAUCUUCUACACAGUAAATT against Ppp2r3a | inactive: 0.38
GGAGGACGUGAACUUUGACTT against Stk32c | inactive: 0.642
GCAUUCUACAACGAUCCCUTT against Hdac5 | inactive: -0.67
GGCCAUUGAGCUCAACCCUTT against Sgta | inactive: 0.429
CGACCUUAAGCUAAGCAGUTT against Laf4 | inactive: -0.43
GCCGAAUUGGACAAGUCUATT against Plxnd1 | inactive: -1.18
GGAAUUCAGGAUAUAAGGATT against Fut7 | inactive: -0.415
GGUCCAAUUAACCUAUCUUTT against AW555814 | inactive: -2.08
GCAGGAGCUGAAGCAAAGATT against 2410005K17Rik | inactive: -1.87
CCGUCUAUACAUCUUUCCATT against D630005B22Rik | inactive: -1.51
GAACCUUCUGCUUUGAUGCTT against Olfr641 | inactive: 0.824
CCACACUAGAAUGAACAUATT against 3830417A13Rik | inactive: -2.63
GGUGAACAUGUUUACAAACTT against Btf3 | inactive: -0.466
GGUCAGAUACAAUGUAUAUTT against Ap1s3 | inactive: -0.387
CCUCUCUGUACAGUCAACCTT against Fndc6 | inactive: -0.404
GGUUUACUGGUAAUUUUCATT against 2610318I01Rik | inactive: -0.282
GGACGAGUCACACUUUGGATT against Cdyl2 | inactive: 0.249
GGAUUUCGUCGAAAAGAAUTT against Mical3 | inactive: -1.34
GGACCUAAGCAUUUUACAUTT against Traf2 | inactive: 0.224
GGUAGCCAAUGGGAAAAAATT against Cnot6l | inactive: 1.72
GGAAUUGAAACACAUCUCUTT against Sntb1 | inactive: 0.706
GGUCCUCCAAAAAAAGCAATT against Prlpi | inactive: 0.645
CCACGAGAACCUCAAGGGUTT against Ckm | inactive: 0.587
GCGAAGCUAUGGAGACAUGTT against Trib2 | inactive: 0.293
GGUCACCUCUCCAUCUAGATT against D430014M15 | inactive: -0.253

Sequence | z-score
GGACUUGAAAAUUGUUCUUTT against Lass5 | inactive: -1.43
CCUAAUAAGCCAUAUGCAUTT against 4930562C03Rik | inactive: 1.1
GGAGGUGGUGCUUAAAGGUTT against Rnf122 | inactive: 0.511
GGCCCAUUACUUGUUGACUTT against BC025462 | inactive: -1.67
GGCCUUUUGCCAUUGACAUTT against B3gat2 | inactive: 0.687
GGAGUGGAAGUUCAAAGAGTT against Anapc11 | inactive: 0.578
GGUGAUAUAGCUAUUUUCUTT against Fbxw11 | inactive: 0.952
GGACCUUCCAGCAAGAUUUTT against Rnf13 | inactive: -0.477
GGGUUCUUUCACUGAACGATT against AW539964 | inactive: -0.585
CCAAGACAAGAGCGAUUAATT against 1110019O13Rik | inactive: 0.116
GCAUCUACCAUGGAAAUAUTT against Clcn7 | inactive: -0.72
GGAACUAGCCGUGAUGAUGTT against Htr1f | inactive: -1.28
GGUUUCUUCUAAGAACAAATT against Astl | inactive: 1.09
GGCCAUUACUCUGAUUCAUTT against Phyhipl | inactive: 0.889
CGUACAAUCAUGUGUAAUGTT against 1110059E24Rik | inactive: 0.92
CCUGGAAUACAAGACAUGATT against BC065151 | inactive: -0.999
GGCACGAGCUCUCAUCUUUTT against Slc27a4 | inactive: -0.181
CGACGACGAGUUUCUCCAUTT against 1810026J23Rik | inactive: -1.77
GGACAGCUAUUUGUUUUACTT against Azi2 | inactive: 1.81
GCAUGUGCCUGACUGGGUUTT against D5Wsu178e | inactive: -1.46
GGUGACUUCGGAGAAAAGGTT against Sncaip | inactive: -0.0664
GGGACAAAGGCUCAACAUATT against AL024069 | inactive: -0.231
GCAAGAGACCUUGUUAUAGTT against BC003236 | inactive: -0.871
GGCUAGAAAGGGUCUCAAATT against Cyp3a25 | inactive: 0.0689
GGGCAGAAACAAAAGGUUATT against Tmlhe | inactive: 1.08
